Results from PubChem BioAssay AID1508600 (Functional Genomics Laboratory (NCATS/FGL), 2020).
The campaign covered roughly 53,000 sequences. About 3,700 (7%) were called active.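 The calls were made as follows: active = gene knockdowns whose robust z-score for IL-1 alpha signal is at least 2 or at most -2, so actives lie on both sides; inactive = the rest.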 The list shows a part of the results.

Assay: Components of the Cytosolic LPS Sensing Pathway: Gene Identification via Genome-wide siRNA Screen;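 also: robust z of the log signal after scaling to non-targeting control siRNA wells of the plate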
Settings: RAW264.7 macrophages, IL-1a HTRF, actives lie on both sides, screened at 100 nM (by protocol), cells primed 5 h with Pam3CSK4 first
Method in brief: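 IL-1a HTRF of supernatants after 24 hour LipidA transfection of Pam3CSK4-primed (5 hours) RAW264.7 cells, 48h post-siRNA transfection (100 nM). Scores: percent of plate negative-control median, then log-based robust z-score.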

Row | Sequence | z-score
1 | GGUGGUUCUUUUAAAGUUUTT against Dlat | inactive: 0.794
2 | GGACAUGGAGAACCUUUUUTT against Naxd | inactive: -1.78
3 | GCUCUCAAAAGUCCUUAGCTT against Emsy | inactive: -1.9
4 | GGGUACCUGUGGUUUUUGUTT against Hdhd5 | inactive: -0.481
5 | GGAAGAUGUGGCUUGUGUCTT against Ly6d | inactive: 0.0724
6 | CCUAUAUGGUACCACACUCTT against Olfr31 | inactive: -1.56
7 | GCCCUUGAAGAUUUGAGGUTT against Cops8 | inactive: 0.00555
8 | GGACACACAGUGAUCAUAUTT against Fhl1 | inactive: -0.79
9 | CGAUGACUAUUUUUCUUGATT against Sgtb | inactive: -0.12
10 | GCACUAAAGAAUCUUUACATT against Tmtc1 | inactive: 1.19
11 | GGUCCUGAAAAUCGCUCAGTT against Ctrb1 | inactive: -0.649
12 | GCAUUCCUUUCCAAAAGGATT against Rpl24 | inactive: -0.146
13 | GGAAACAAAUUGACUGUUATT against Trim61 | inactive: -0.26
14 | GGGAUGAGUUCUUGUAAAUTT against Unc50 | inactive: -1.32
15 | GGAAAUUACAGAGACAAUUTT against Rbm3 | inactive: -0.262
16 | GGAAUGAAUUCAGAGCAUGTT against Map6 | inactive: 0.135
17 | CCAGGGACAAGAUUUAUCUTT against Pcdhgb4 | inactive: -0.445
18 | GGUGUUUGUGGAAGAGGAATT against Stx19 | inactive: 0.0956
19 | CCUGCUAUACAUUGAACCCTT against Lhcgr | active: 2.52
20 | CCCUGCUUUCGGAAUUACATT against C030016D13Rik | inactive: 0.435
21 | GGCUGUCAUCUGGACAGAUTT against Slc5a6 | inactive: 0.389
22 | GGAAAGAAACUAAGGAAAATT against Arhgap15 | inactive: 0.628
23 | GGAAGUGAGUUUUUCAGCUTT against Bcl6b | inactive: -0.473

Some of the entries so far, as tab-separated lines.
Row	Sequence	z-score
1	GGUGGUUCUUUUAAAGUUUTT against Dlat	inactive: 0.794
2	GGACAUGGAGAACCUUUUUTT against Naxd	inactive: -1.78
4	GGGUACCUGUGGUUUUUGUTT against Hdhd5	inactive: -0.481
5	GGAAGAUGUGGCUUGUGUCTT against Ly6d	inactive: 0.0724
6	CCUAUAUGGUACCACACUCTT against Olfr31	inactive: -1.56
8	GGACACACAGUGAUCAUAUTT against Fhl1	inactive: -0.79
9	CGAUGACUAUUUUUCUUGATT against Sgtb	inactive: -0.12
14	GGGAUGAGUUCUUGUAAAUTT against Unc50	inactive: -1.32
15	GGAAAUUACAGAGACAAUUTT against Rbm3	inactive: -0.262
17	CCAGGGACAAGAUUUAUCUTT against Pcdhgb4	inactive: -0.445
19	CCUGCUAUACAUUGAACCCTT against Lhcgr	active: 2.52
20	CCCUGCUUUCGGAAUUACATT against C030016D13Rik	inactive: 0.435
21	GGCUGUCAUCUGGACAGAUTT against Slc5a6	inactive: 0.389
22	GGAAAGAAACUAAGGAAAATT against Arhgap15	inactive: 0.628

Next part.

Row | Sequence | z-score
24 | GCUAAUUUGACAAAGACGGTT against Bfsp2 | inactive: 1.8
25 | GCUUUAUAAUCGGCUCUCCTT against Zdhhc6 | inactive: 0.25
26 | GGAUCUUCGGGACACCUUUTT against Mylpf | inactive: 1.08
27 | GGAUAUUCUGUUUUAUGUCTT against Rnf214 | inactive: -0.595
28 | CCGUGUCUUAGGUGAUCACTT against H2-DMb1 | inactive: 0.391
29 | GGUUCCGAUUCUGUGGCAGTT against Chrm5 | inactive: -1.03
30 | CCCAGGAGUCCGACUUUACTT against Kirrel2 | inactive: -0.138
31 | GGCAACAUUGCUGUCGUUCTT against Tmem144 | inactive: -1.98
32 | CGUGGACCUAUCCCACAAUTT against Tsku | inactive: 0.405
33 | CAUCUGUACUACAAACUAATT against Wfdc21 | inactive: 1.23
34 | GGCCCUCACUCGUAUAUUUTT against Rhot1 | inactive: 0.316
35 | CGAAAAAUCAGAUUCCUCCTT against Coil | inactive: 0.873
36 | GGCAUGAUAGUGUAAUAACTT against Piga | inactive: -0.488
37 | GGGUGAAAAGGUUUCUGUCTT against Lactb | inactive: 0.892
38 | GGGUGAAUUCUGUCUAUGUTT against Far1 | inactive: 0.0586
39 | GUACAAGCCACUGGAUCUGTT against Smad6 | active: 5.56
40 | GGAAUGUUGGAAUCAAUUGTT against Gcm1 | active: 2.83
41 | CCAUCAAACUAAGACAAUCTT against Csnka2ip | inactive: -0.48
42 | GGUCAAAGACUCUUCUGAUTT against Rrp15 | inactive: -1.19
43 | GGACUGGCUCUGAAAAAAATT against Rpf1 | inactive: 1.41
44 | GGAUAAGCUUAUCAGCGUGTT against Stim1 | inactive: -0.914
45 | GGAAAGUUCAGAGGAGAGATT against Batf | inactive: 0.285
46 | GGACCUAUACCUGAAGCCUTT against Eef2 | inactive: -1.54

Row | Sequence | z-score
47 | GGCCAAUAUGUGCUGGUAUTT against Ihh | inactive: 0.186
48 | GCUAAGACUCUUGAAUCAGTT against Zfp280d | active: 3.72
49 | CCUGCUAAAGGAAUGUCACTT against Cmc2 | inactive: -0.493
50 | GCUACGGACCAUGUUCAAGTT against Nxpe4 | active: 2.93
51 | GAUUUUCCUGCUCACAAUGTT against Olfr1269 | inactive: 1.03
52 | CCAUGAAUACCGAUGAGGATT against Kcnk9 | inactive: -0.186
53 | GCUCUUAACAUUUAUGCUATT against Dph6 | inactive: -0.958
54 | GGUCAUCGGGUAAUUAAUCTT against Rad52 | inactive: -0.618
55 | CCACGAUUGCCAAACGUGATT against Dido1 | inactive: -0.199
56 | GGGUUCACCUUGACAUCCATT against Tmed9 | inactive: -1.66
57 | CGCGCUGCUCAAAAACUAUTT against Gh | inactive: -0.0699
58 | GGGUUUGGUCUCAUAUAAATT against Samd7 | inactive: -0.618
59 | GCAAUACCUCAGAAAAAGUTT against Tmem165 | active: -4.14
60 | GCACCAUACCUACCACAUATT against Ppp4r3a | inactive: 0.533
61 | GGAACUGGACAUCCAAACUTT against B3galt2 | inactive: -1.17
62 | GGUCACAUGGAGCUUUAUGTT against Il4ra | inactive: -1.44
63 | UGGAUACUCUAUCUCAAGCTT against Serpinb9g | inactive: -0.479
64 | GGUCAUGUUUCUCUCCCAATT against Veph1 | active: -2.11
65 | GGAACUGGCAAGACAACCATT against Rfc2 | inactive: -1.05
66 | GGCAUCUAUACCAGUAAUATT against Mllt6 | inactive: -0.562
67 | CGAAUUCAAAAAGCUAGAGTT against Gsto1 | inactive: 0.0531
68 | GGCGUGUCUUGAUAGAAAUTT against Tesmin | inactive: 0.652
69 | GCAUGCAGCCUAUGGAUGCTT against Slc22a15 | inactive: 0.817
